The values that follow come from publication PMC7875385.

Amino acid sequences for entries named in this document (tags omitted).
UniProt Q15648: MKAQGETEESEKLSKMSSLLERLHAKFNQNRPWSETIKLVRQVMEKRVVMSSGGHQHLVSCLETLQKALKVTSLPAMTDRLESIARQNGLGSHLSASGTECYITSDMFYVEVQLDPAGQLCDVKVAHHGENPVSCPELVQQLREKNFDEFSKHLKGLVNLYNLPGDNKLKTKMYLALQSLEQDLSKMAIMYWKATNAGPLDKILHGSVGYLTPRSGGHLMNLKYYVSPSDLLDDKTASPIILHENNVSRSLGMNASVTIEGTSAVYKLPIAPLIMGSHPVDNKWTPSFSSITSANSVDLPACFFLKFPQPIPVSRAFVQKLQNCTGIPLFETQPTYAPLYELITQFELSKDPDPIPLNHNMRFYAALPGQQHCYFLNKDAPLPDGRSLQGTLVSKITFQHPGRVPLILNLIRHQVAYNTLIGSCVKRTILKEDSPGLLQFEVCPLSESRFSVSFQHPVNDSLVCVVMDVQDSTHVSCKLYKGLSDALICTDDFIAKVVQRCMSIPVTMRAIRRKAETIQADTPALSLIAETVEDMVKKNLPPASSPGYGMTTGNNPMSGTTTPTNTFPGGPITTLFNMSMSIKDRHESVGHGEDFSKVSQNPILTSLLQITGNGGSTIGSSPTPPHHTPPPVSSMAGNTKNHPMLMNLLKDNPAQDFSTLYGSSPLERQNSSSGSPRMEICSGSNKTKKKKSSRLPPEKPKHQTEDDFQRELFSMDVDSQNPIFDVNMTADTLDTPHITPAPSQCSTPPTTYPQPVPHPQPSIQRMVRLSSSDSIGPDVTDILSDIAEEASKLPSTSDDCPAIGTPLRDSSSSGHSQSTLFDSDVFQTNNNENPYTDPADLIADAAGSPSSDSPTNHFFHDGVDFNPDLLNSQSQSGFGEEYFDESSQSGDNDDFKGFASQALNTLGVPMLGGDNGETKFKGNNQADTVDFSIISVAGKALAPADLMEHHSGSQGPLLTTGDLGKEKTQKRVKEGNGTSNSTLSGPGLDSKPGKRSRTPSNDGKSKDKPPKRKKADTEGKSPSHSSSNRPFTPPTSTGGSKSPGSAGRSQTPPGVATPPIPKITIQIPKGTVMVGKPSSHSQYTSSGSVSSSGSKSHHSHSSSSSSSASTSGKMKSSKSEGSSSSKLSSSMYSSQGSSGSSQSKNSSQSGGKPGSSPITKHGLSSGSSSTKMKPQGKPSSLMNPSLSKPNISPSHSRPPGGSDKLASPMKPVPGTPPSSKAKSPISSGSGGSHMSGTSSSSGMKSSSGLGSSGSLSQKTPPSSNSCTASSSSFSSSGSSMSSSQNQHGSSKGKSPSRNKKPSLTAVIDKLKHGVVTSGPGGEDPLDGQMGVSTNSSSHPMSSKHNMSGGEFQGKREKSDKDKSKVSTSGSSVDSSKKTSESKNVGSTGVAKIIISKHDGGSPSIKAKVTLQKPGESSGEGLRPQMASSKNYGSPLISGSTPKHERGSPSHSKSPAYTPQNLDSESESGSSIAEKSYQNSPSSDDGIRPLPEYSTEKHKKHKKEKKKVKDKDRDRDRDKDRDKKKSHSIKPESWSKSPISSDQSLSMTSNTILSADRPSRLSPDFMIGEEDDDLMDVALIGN

No constants are given. Whether binding was seen depends on the method and setting. In cells and extracts the contact can be indirect. Some entries that bind do so weakly or less than the wild type. Where a sequence is shown, tags or fusion partners need not be part of it.

The target in the experiment is T1, FLAG-tagged MED19 (MYC- and FLAG-tagged MED19 stably overexpressed in LNCaP cells) (UniProt A0JLT2).
T1 sequence: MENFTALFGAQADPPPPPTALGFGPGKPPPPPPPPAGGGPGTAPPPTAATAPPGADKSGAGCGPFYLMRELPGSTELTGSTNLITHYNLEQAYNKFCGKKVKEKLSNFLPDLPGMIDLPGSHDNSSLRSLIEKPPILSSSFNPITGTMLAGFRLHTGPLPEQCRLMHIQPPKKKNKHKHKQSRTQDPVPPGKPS
Briefly: co-IP; MED19 LNCaP and control LNCaP cells in androgen-containing media, lysed with RIPA buffer; FLAG-tagged MED19 immunoprecipitated with FLAG antibody coupled to protein A/G agarose beads; blots for MYC, AR and MED1.

Take “Mediator subunit MED1 (from UniProt Q15648 1-1581)”: the binding entry was “binds”.
